# Experimental data taken from the supplement of paper PMC9433722.
# Counter-ions that a name gives are not always drawn. The list shows a part of the results. Most values come without repeats; read them as rough.
# Assays:
# [1] = tested on: Saos-2; experiment: cell viability (CCK-8) relative to DMSO control (% of control); higher = less cytotoxic; conditions: 10 µM; 48 h
# [2] = tested on: U2OS; experiment: as above; conditions: 10 µM; 48 h
SMILES,cell viability [1],cell viability [2]
CCCCCCCCc1ccc(CCC(N)(CO)CO)cc1,15.1,75
Cc1cccc(C)c1NC(=O)C1CCCCN1C (racemic) [(±)-Mepivacaine hydrochloride],104,103
Nc1ccc(C(=O)NCC(=O)O)cc1 [Aminohippurate . sodium],117,83.3
COC(=O)[C@H](c1ccccc1Cl)N1CCc2sccc2C1 [Clopidogrel sulfate],72.8,89.7
O=P(O)(O)C(O)(Cn1ccnc1)P(=O)(O)O [Zoledronic acid],56.4,110
N=C(N)NCCCC[C@@H]1NC(=O)CCSSC[C@@H](C(N)=O)NC(=O)[C@@H]2CCCN2C(=O)[C@H](Cc2c[nH]c3ccccc23)NC(=O)[C@H](CC(=O)O)NC(=O)CNC1=O [Eptifibatide],102,77.9
CC(C)(C)NC[C@H](O)COc1cccc2c1CCCC2=O [Levobunolol·HCl],112,90.5
CN(C)CCc1c[nH]c2ccc(CS(=O)(=O)N3CCCC3)cc12 [Almotriptan malate],106,97.9
CC(C)OC(=O)CCC/C=C\C[C@@H]1[C@@H](CC[C@@H](O)CCc2ccccc2)[C@H](O)C[C@@H]1O [Latanoprost],67.7,121
CN(C)CCc1c[nH]c2ccc(Cn3cncn3)cc12 [Rizatriptan Benzoate],104,100
Cc1cccn2c(=O)c(-c3nnn[nH]3)cnc12 [Pemirolast Potassium],108,114
O=C(O)c1cc(=O)c2c(OCC(O)COc3cccc4oc(C(=O)O)cc(=O)c34)cccc2o1 [Cromolyn·Na (Disodium Cromoglycate)],57.9,110
CN1CCC(=C2c3ccccc3C=Cc3ccccc32)CC1 [Cyproheptadine·HCl Sesquihydrate],60.7,107
Cc1c(-c2ccccc2)oc2c(C(=O)OCCN3CCCCC3)cccc2c1=O [Flavoxate·HCl],106,79.9
CCc1nn(CCCN2CCN(c3cccc(Cl)c3)CC2)c(=O)n1CCOc1ccccc1 [Nefazodone·HCl],76.5,101
CC(C)c1nc(N(C)S(C)(=O)=O)nc(-c2ccc(F)cc2)c1/C=C/[C@@H](O)C[C@@H](O)CC(=O)O [Rosuvastatin Calcium],84.9,102
NCC[C@H](O)C(=O)N[C@@H]1C[C@H](N)[C@@H](O[C@H]2O[C@H](CN)[C@@H](O)[C@H](O)[C@H]2O)[C@H](O)[C@H]1O[C@H]1O[C@H](CO)[C@@H](O)[C@H](N)[C@H]1O [Amikacin . disulfate],107,98.9
CC(=O)OCC(=O)[C@@]12OC3(CCCC3)O[C@@H]1C[C@H]1[C@@H]3CCC4=CC(=O)C=C[C@]4(C)[C@@]3(F)[C@@H](O)C[C@@]12C [Amcinonide],120,98.1
CC(C)(C)NCC(O)c1cc(O)cc(O)c1 (stereo not drawn) [Terbutaline Hemisulfate],106,97.4
CC(C)(S)[C@@H](N)C(=O)O [Penicillamine (D-Penicillamine)],104,108
CC(=O)S[C@@H]1CC2=CC(=O)CC[C@]2(C)[C@H]2CC[C@@]3(C)[C@@H](CC[C@@]34CCC(=O)O4)[C@H]12 [Spironolactone],65.9,114
CCCN[C@H]1CCc2nc(N)sc2C1 [Pramipexole Dihydrochloride Monohydrate],60.2,114

# A different layout for 2 compounds above.
SMILES	cell viability [1]	cell viability [2]
Cc1c(-c2ccccc2)oc2c(C(=O)OCCN3CCCCC3)cccc2c1=O [Flavoxate·HCl]	106	79.9
CCc1nn(CCCN2CCN(c3cccc(Cl)c3)CC2)c(=O)n1CCOc1ccccc1 [Nefazodone·HCl]	76.5	101

# Further entries follow:

SMILES,cell viability [1],cell viability [2]
CC(=O)N[C@@H](CS)C(=O)O [N-Acetyl-L-cysteine],92.9,85.3
CCC[C@@H]1C[C@@H](C(=O)N[C@@H]([C@H]2O[C@H](SC)[C@H](O)[C@@H](O)[C@H]2O)[C@H](C)Cl)N(C)C1 [Clindamycin · HCl],64.7,88.3
CCC1=C(C)CN(C(=O)NCCc2ccc(S(=O)(=O)NC(=O)N[C@H]3CC[C@H](C)CC3)cc2)C1=O [Glimepiride],69.4,106
CN[C@@H]1[C@H](O[C@H]2[C@H](O[C@H]3[C@H](O)[C@@H](O)[C@H](N=C(N)N)[C@@H](O)[C@@H]3N=C(N)N)O[C@@H](C)[C@]2(O)C=O)O[C@@H](CO)[C@H](O)[C@H]1O [Streptomycin . sulfate],68.6,112
NNc1nncc2ccccc12 [Hydralazine . hydrochloride],113,82.7
O=C1NC(=O)C(c2ccccc2)(c2ccccc2)N1 [Phenytoin],62.5,108
C[C@@H](O)[C@H]1C(=O)N2C(C(=O)O)=C(S[C@@H]3CN[C@H](CNS(N)(=O)=O)C3)[C@H](C)[C@H]12 [Doripenem],116,107
Cc1cn([C@H]2C[C@H](N=[N+]=[N-])[C@@H](CO)O2)c(=O)[nH]c1=O [Zidovudine],64.8,102
CCN(CC)CC#CCOC(=O)C(O)(c1ccccc1)C1CCCCC1 (stereo not drawn) [Oxybutynin Chloride],112,113
C[C@H]1O[C@@H](O[C@H]2[C@@H](O)C[C@H](O[C@H]3[C@@H](O)C[C@H](O[C@H]4CC[C@@]5(C)[C@H](CC[C@@H]6[C@@H]5C[C@@H](O)[C@]5(C)[C@@H](C7=CC(=O)OC7)CC[C@]65O)C4)O[C@@H]3C)O[C@@H]2C)C[C@H](O)[C@@H]1O [Digoxin],25.1,14.2
COc1ccc2cc(CCC(C)=O)ccc2c1 [Nabumetone],70.5,95
NC[C@@H](O)c1ccc(O)c(O)c1 [L-Norepinephrine bitartrate monohydrate],61.4,108
CCC(C)n1ncn(-c2ccc(N3CCN(c4ccc(OCC5COC(Cn6cncn6)(c6ccc(Cl)cc6Cl)O5)cc4)CC3)cc2)c1=O (stereo not drawn) [Itraconazole],62.7,65.8
COC(=O)CCC(=O)CN [Methyl δ-aminolevulinate hydrochloride],103,114
Nc1ccn([C@@H]2O[C@H](CO)[C@@H](O)C2(F)F)c(=O)n1 [Gemcitabine . hydrochloride],42.6,84.5
CN1C2CCCC1CC(NC(=O)c1nn(C)c3ccccc13)C2 (stereo not drawn) [Granisetron·HCl],65.3,96
CN1C(CCl)Nc2cc(Cl)c(S(N)(=O)=O)cc2S1(=O)=O (stereo not drawn) [Methyclothiazide],90,100
OC(CNCC(O)C1CCc2cc(F)ccc2O1)C1CCc2cc(F)ccc2O1 (stereo not drawn) [Nebivolol·HCl],85.6,62.5
OCCOCCN1CCN(C(c2ccccc2)c2ccc(Cl)cc2)CC1 (stereo not drawn) [Hydroxyzine dihydrochloride],99.7,101
c1cnc2cc3c(cc2n1)[C@@H]1CNC[C@H]3C1 [Varenicline Tartrate],87.6,88.2
C[C@H](CS)C(=O)N1CCC[C@H]1C(=O)O [Captopril],57.6,105
CNCCCC1c2ccccc2C=Cc2ccccc21 [Protriptyline·HCl],102,98.4

SMILES,cell viability [1],cell viability [2]
CN(C)CC/C=C1/c2ccccc2COc2ccc(CC(=O)O)cc21 [Olopatadine],66.2,97.7
COc1cc(Cc2cnc(N)nc2N)cc(OC)c1OC [Trimethoprim],63.5,107
Nc1ccn([C@@H]2O[C@H](CO)[C@@H](O)[C@@H]2O)c(=O)n1 [Cytarabine],60.6,84.2
Nc1ccc(S(=O)(=O)c2ccc(N)cc2)cc1 [Dapsone],112,85.9
CN(C)CCc1c[nH]c2ccc(C[C@H]3COC(=O)N3)cc12 [Zolmitriptan],60.5,115
CCCC(CCC)C(=O)O [Valproic acid . sodium salt],64.2,91.9
CCCNC(=O)NS(=O)(=O)c1ccc(Cl)cc1 [Chlorpropamide],96.1,86.1
COc1c(C)c2c(c(O)c1C/C=C(\C)CCC(=O)OCCN1CCOCC1)C(=O)OC2 [Mycophenolate Mofetil],42.3,79.6
CCc1ccc(CCOc2ccc(CC3SC(=O)NC3=O)cc2)nc1 (stereo not drawn) [Pioglitazone·HCl],67.5,87.7
CNCC[C@H](Oc1cccc2ccccc12)c1cccs1 [Duloxetine·HCl],101,74.7
COc1ccc(OC)c(C(O)CNC(=O)CN)c1 (stereo not drawn) [Midodrine·HCl],110,111
CN1CCN(C2=Nc3ccccc3Oc3ccc(Cl)cc32)CC1 [Loxapine succinate],113,117
CNC[C@H](O)c1ccc(O)c(O)c1 [Epinephrine Bitartrate],59.1,102
O=C(C1CCCCC1)N1CC(=O)N2CCc3ccccc3C2C1 (stereo not drawn) [Praziquantel],64.4,102
O=C1c2c(O)ccc(O)c2C(=O)c2c(NCCNCCO)ccc(NCCNCCO)c21 [Mitoxantrone . dihydrochloride],15.8,14.1
Cc1ccc(S(=O)(=O)NC(=O)NN2CCCCCC2)cc1 [Tolazamide],66.2,95.2
C[C@H]1C[C@@H]2[C@H]([C@@H](O)C[C@@]3(C)[C@H]2CC[C@]3(O)C(=O)CO)[C@@]2(C)C=CC(=O)C=C12 [Methylprednisolone],74.9,94
CC(C)(C)NC[C@H](O)c1ccc(O)c(CO)c1 [Levalbuterol·HCl],105,117
CNS(=O)(=O)CCc1ccc2[nH]cc(C3CCN(C)CC3)c2c1 [Naratriptan·HCl],104,106
CC[C@H]1OC(=O)[C@H](C)[C@@H](O[C@H]2C[C@@](C)(OC)[C@@H](O)[C@H](C)O2)[C@H](C)[C@@H](O[C@@H]2O[C@H](C)C[C@H](N(C)C)[C@H]2O)[C@](C)(OC)C[C@@H](C)C(=O)[C@H](C)[C@@H](O)[C@]1(C)O [Clarithromycin],67.5,87.2
